Experimental data from publication doi:10.1101/2022.07.29.502014.
No constants are given. Whether binding was seen depends on the method and setting. Binding seen in cells or lysates may run through a third protein. Some entries that bind do so weakly or less than the wild type. Sequences can lack the tags named with a protein.

Amino acid sequences for entries named in this document (tags omitted).
UniProt Q9N2I1: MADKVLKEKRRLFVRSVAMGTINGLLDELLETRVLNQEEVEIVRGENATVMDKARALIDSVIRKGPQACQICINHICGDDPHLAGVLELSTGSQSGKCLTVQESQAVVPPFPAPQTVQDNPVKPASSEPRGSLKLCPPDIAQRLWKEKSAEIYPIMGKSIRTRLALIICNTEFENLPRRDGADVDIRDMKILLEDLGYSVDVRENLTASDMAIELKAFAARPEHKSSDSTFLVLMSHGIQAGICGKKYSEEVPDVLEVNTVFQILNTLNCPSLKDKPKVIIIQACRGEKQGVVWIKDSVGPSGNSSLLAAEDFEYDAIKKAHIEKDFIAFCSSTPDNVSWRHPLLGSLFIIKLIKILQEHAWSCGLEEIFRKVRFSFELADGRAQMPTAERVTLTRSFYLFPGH

Target: FLAG-caspase-1 (porcine) (porcine) (UniProt Q9N2I1)
Test: co-IP

B1: S-MYC-RIG-I (porcine derived) (protein, UniProt Q9GLV6 1-940)
chain: MTAEQRRNLHAFGDYVRKTLDPTFILSYMAPWFRDDEVQHIQAEKNNKGPTEAASLFLQFLLELQEEGWFRGFLDALNQAGYCGLCEAIESWDFQKIEKLEEYRSLLRRLQPEFKTTINPKDILPEIAECLISQECEEILQICSSKGLMAGAEKMVECLLRSDKENWPKTLKLALEKEESRFSELWMVDKGAEDVKMKDLEDDEMKTCDVQIFYKEEPENQNLSQNSCSSSAPHTYSPLKPRKYQLELALPAQNGKNTIICAPTGCGKTFVSLLICEHHLKKFPRGRKGKVVFFAIQLPVYEQQKSVFSKHFERLGYKVAGISGATSDTVCVEQIVENSDIIILTPQILVNCLTNGTIPSLSVFTLMIFDECHNTSKQHPYNVIMFSYLDRKLGGSSDSLPQVIGLTASVGVGDAKNKAEATEYICKLCASLDTSVIATVRDNLEELEEVVYKPQKFFRKVELRTTDRFKCIISQLMMEIESLAKSIFEELGTITLGGLFQIQNSNFGTQKYEQWIVKVQKECAVFQMPDKDKESRICKALFSYMSHLRIYNDALIINEHARMKDALDYLKDFFRNIRAAGFDEIEQDLTQRFEEKLQELESISIDPSNENPKLRDLCFILQEEYHLNPETRTILFVKTRALVDALKKWIKENPKLSFLKPSILTGRGKTNQNIGMTLPAQKCVLDTFRTDKDNKILITTSVADEGIDIAQCNLVILYEYVGNVIKMIQTRGRGRARGSKCFLLTANADLIDKEKMNMYKEEMMNGAILILQTWDEAVFKEKIHQIQIREKIIRDNQGKPEPVPDKKTKKLLCKKCKAFACYTADIRMVEKCHFTVVGDAFRERFVSKLHPKPKSFGNIEKRAKIYCARPDCSHDWGIYVRYKAFEMPFIKIESFVVEDIATGVQTVHAKWKDFNFEKLSFDAAEMAGGAQDLGLQGMGN
In the case of B1, the binding is reported as “binds”.
